The list shows only some results of the screen, not a fair sample: it is rich in T/C values a quarter to a half above the control, in often repeated tests (any T/C) and in doses without a T/C. Other doses and runs of a compound stand elsewhere. T/C gives the treated animals as a percentage of the vehicle group. Some doses have a count of surviving animals in place of a T/C: the source holds a T/C of zero for them, seemingly a mark for toxic or unscored doses. Some survivor counts are full or nearly so, which does not show that the dose was tolerated: survival well below the control is almost never listed, so the zero probably covers shortened survival too. Survivors were counted at the toxicity check, usually on the fifth day, unless a day is given; later deaths do not show. Schedules are NCI's codes, taken here to give the interval after Q, in days (D) or hours (H), and the number of doses after X. Signs of the kind (2×) stand for listed records that agree. Some schedules carry Z or #; the key to these is not given. Some entries were tested several times; the results are listed from low to high. For survival time, the PubChem record calls one and a half times the control and up active, and a quarter to a half above the control has no call in these data; cut-offs in other NCI protocols can differ. Some T/C values are followed by the survivors on the day toxicity was checked, most often the fifth; without a count, all were alive then.
Tested on: L1210 leukemia ip in BDF1 mice, survival T/C
Assay: NCI In Vivo Anticancer Drug Screen. Data for tumor model L1210 Leukemia (intraperitoneal) in B6D2F1 (BDF1) mice
Details: T/C endpoint: mean survival time, higher T/C = longer survival
[1] = dose: 50.0 mg/kg/injection, schedule: Q04DX003 (ip), vehicle: water

## Nc1ncn(C2OC(CO)C(O)C2O)c(=O)n1 (stereo unspecified)
dose: 0.25 mg/kg/injection, schedule: Q01DX009 (ip), vehicle: saline
  T/C: 135 % of control
dose: 0.25 mg/kg/injection, schedule: Q01DX015 (ip), vehicle: carboxymethylcellulose (CMC)
  T/C: 125 % of control
dose: 0.45 mg/kg/injection, schedule: Q01DX009 (ip), vehicle: saline
  T/C: 138 and 141 % of control
dose: 0.5 mg/kg/injection, schedule: Q01DX005 (ip), vehicle: saline
  T/C: 140 % of control
dose: 0.5 mg/kg/injection, schedule: Q01DX015 (ip), vehicle: carboxymethylcellulose (CMC)
  T/C: 131 % of control
dose: 0.75 mg/kg/injection, schedule: Q01DX009 (ip), vehicle: water, evaluated on day 5
  T/C: 132 % of control
dose: 0.75 mg/kg/injection, schedule: Q01DX009 (ip), vehicle: water, evaluated on day 60
  T/C: 133 and 145 % of control
dose: 0.9 mg/kg/injection, schedule: Q01DX009 (ip), vehicle: saline
  T/C: 145, 154, 158, 171 % of control
dose: 1.0 mg/kg/injection, schedule: Q01DX005 (ip), vehicle: saline
  T/C: 146 % of control
dose: 1.0 mg/kg/injection, schedule: Q01DX015 (ip), vehicle: other
  T/C: 130 % of control
dose: 1.12 mg/kg/injection, schedule: Q01DX009 (oral), vehicle: saline
  T/C: 126 % of control
dose: 1.25 mg/kg/injection, schedule: Q01DX009 (ip), vehicle: carboxymethylcellulose (CMC)
  T/C: 147 % of control
dose: 1.6 mg/kg/injection, schedule: Q04DX003 (ip), vehicle: water
  T/C: 137 and 145 % of control
dose: 1.8 mg/kg/injection, schedule: Q01DX009 (ip), vehicle: saline
  T/C: 188, 195, 204, 213 % of control
dose: 2.25 mg/kg/injection, schedule: Q01DX009 (oral), vehicle: saline
  T/C: 144 % of control
dose: 2.25 mg/kg/injection, schedule: Q## X003 (ip), vehicle: saline
  T/C: 142 % of control
dose: 3.0 mg/kg/injection, schedule: Q01DX009 (ip), vehicle: saline, evaluated on day 30
  T/C: 93 and 204 % of control
dose: 3.0 mg/kg/injection, schedule: Q01DX009 (ip), vehicle: saline, evaluated on day 40
  T/C: 367 % of control
dose: 3.0 mg/kg/injection, schedule: Q01DX009 (ip), vehicle: saline, evaluated on day 45
  T/C: 242 % of control
dose: 3.0 mg/kg/injection, schedule: Q01DX009 (ip), vehicle: saline, evaluated on day 60
  T/C: 273 % of control
dose: 3.0 mg/kg/injection, schedule: Q## X008 (ip), vehicle: saline
  T/C: 136 % of control
dose: 3.6 mg/kg/injection, schedule: Q01DX009 (ip), vehicle: saline
  T/C: 210, 244, 290, 302 % of control
dose: 4.0 mg/kg/injection, schedule: Q01DX005 (oral), vehicle: saline
  T/C: 132 % of control
dose: 4.0 mg/kg/injection, schedule: Q## X040 (oral), vehicle: saline
  T/C: 126 % of control
dose: 4.5 mg/kg/injection, schedule: Q04DX002 (ip), vehicle: saline
  T/C: 111, 127, 142, 149 % of control
dose: 5.0 mg/kg/injection, schedule: Q01DX009 (ip), vehicle: saline
  T/C: 129 % of control
dose: 6.0 mg/kg/injection, schedule: Q01DX001 (ip), vehicle: saline
  T/C: 127 % of control
dose: 6.0 mg/kg/injection, schedule: Q01DX009 (ip), vehicle: water, evaluated on day 5
  T/C: 140 % of control
dose: 6.0 mg/kg/injection, schedule: Q01DX009 (ip), vehicle: water, evaluated on day 60
  T/C: 142 % of control
dose: 6.25 mg/kg/injection, schedule: Q04DX003 (ip), vehicle: clinical formulation
  T/C: 133, 137, 162 (2×), 167, 217 % of control
dose: 6.25 mg/kg/injection, schedule: Q04DX003 (ip), vehicle: water, evaluated on day 30
  T/C: 212 and 218 % of control
dose: 6.25 mg/kg/injection, schedule: Q04DX003 (ip), vehicle: water, evaluated on day 60
  T/C: 106, 154, 159, 167, 170, 171, 172, 179, 180 % of control
dose: 7.2 mg/kg/injection, schedule: Q01DX009 (ip), vehicle: saline
  survivor count: 1 of 1
dose: 9.0 mg/kg/injection, schedule: Q04DX002 (ip), vehicle: saline
  T/C: 154, 173, 178, 183 % of control
dose: 10.0 mg/kg/injection, schedule: Q01DX009 (ip), vehicle: carboxymethylcellulose (CMC)
  survivor count: 6 of 6
dose: 12.0 mg/kg/injection, schedule: Q01DX001 (ip), vehicle: saline
  T/C: 144 % of control
dose: 12.0 mg/kg/injection, schedule: Q01DX005 (ip), vehicle: clinical formulation
  survivor count: 2 of 6
dose: 12.0 mg/kg/injection, schedule: Q01DX005 (ip), vehicle: water
  survivor count: 3 of 6
dose: 12.0 mg/kg/injection, schedule: Q01DX009 (ip), vehicle: clinical formulation
  survivor count: 6 of 6
dose: 12.0 mg/kg/injection, schedule: Q01DX009 (ip), vehicle: saline
  survivor count: 6 of 6
dose: 12.5 mg/kg/injection, schedule: Q04DX003 (ip), vehicle: clinical formulation
  T/C: 137, 151, 159, 201, 223, 265 % of control
dose: 12.5 mg/kg/injection, schedule: Q04DX003 (ip), vehicle: water, evaluated on day 30
  T/C: 178 and 296 % of control
dose: 12.5 mg/kg/injection, schedule: Q04DX003 (ip), vehicle: water, evaluated on day 60
  T/C: 154, 180, 212, 213, 215, 217, 227, 239, 248 % of control
dose: 14.0 mg/kg/injection, schedule: Q01DX001 (ip), vehicle: saline
  T/C: 146 % of control
dose: 16.0 mg/kg/injection, schedule: Q## X003 (oral), vehicle: saline
  T/C: 144 % of control
dose: 16.0 mg/kg/injection, schedule: Q## X024 (oral), vehicle: saline
  T/C: 143 % of control
dose: 18.0 mg/kg/injection, schedule: Q04DX002 (ip), vehicle: saline
  T/C: 174, 200, 209, 228 % of control
dose: 24.0 mg/kg/injection, schedule: Q01DX005 (ip), vehicle: saline
  survivor count: 4 of 10
dose: 24.0 mg/kg/injection, schedule: Q01DX009 (ip), vehicle: clinical formulation
  survivor count: 5 of 6
dose: 24.0 mg/kg/injection, schedule: Q01DX009 (ip), vehicle: saline
  survivor count: 4 of 10 and 5 of 6
dose: 24.0 mg/kg/injection, schedule: Q01DX009 (oral), vehicle: saline
  T/C: 129 % of control
dose: 25.0 mg/kg/injection, schedule: Q01DX005 (ip), vehicle: saline
  survivor count: 5 of 6
dose: 25.0 mg/kg/injection, schedule: Q01DX009 (ip), vehicle: saline
  survivor count: 5 of 6
dose: 25.0 mg/kg/injection, schedule: Q04DX003 (ip), vehicle: clinical formulation
  T/C: 116, 126, 188, 211, 252, 261 % of control
dose: 25.0 mg/kg/injection, schedule: Q04DX003 (ip), vehicle: water, evaluated on day 30
  T/C: 96 and 104 % of control
dose: 25.0 mg/kg/injection, schedule: Q04DX003 (ip), vehicle: water, evaluated on day 60
  T/C: 92, 98, 104, 105, 109 (2×), 120, 143, 144 % of control
dose: 32.0 mg/kg/injection, schedule: Q## X008 (oral), vehicle: saline
  T/C: 138 % of control
dose: 32.0 mg/kg/injection, schedule: Q## X040 (oral), vehicle: saline
  survivor count: 7 of 10
dose: 48.0 mg/kg/injection, schedule: Q01DX005 (ip), vehicle: saline
  survivor count: 0 of 10
dose: 48.0 mg/kg/injection, schedule: Q01DX009 (oral), vehicle: saline
  survivor count: 10 of 10
dose: 48.0 mg/kg/injection, schedule: Q## X008 (ip), vehicle: saline
  survivor count: 5 of 10
dose: 48.0 mg/kg/injection, schedule: Q## X024 (ip), vehicle: saline
  survivor count: 7 of 10
dose: 50.0 mg/kg/injection, schedule: Q01DX001 (ip), vehicle: saline, evaluated on day 5
  T/C: 161 % of control
dose: 50.0 mg/kg/injection, schedule: Q01DX001 (ip), vehicle: saline, evaluated on day 60
  T/C: 161 % of control
dose: 50.0 mg/kg/injection, schedule: Q01DX001 (ip), vehicle: saline, run until all animals had died
  T/C: 130 [5 of 6 alive], 164, 176 % of control
dose: 50.0 mg/kg/injection, schedule: Q01DX005 (ip), vehicle: saline
  survivor count: 0 of 6
dose: 50.0 mg/kg/injection, schedule: Q01DX009 (ip), vehicle: saline
  survivor count: 0 of 6
dose: 50.0 mg/kg/injection, schedule: Q04DX003 (ip), vehicle: clinical formulation
  T/C: 95, 116, 122 (2×), 131, 152 % of control
[1]
  T/C: 88, 91, 93, 117, 120, 157 % of control
  survivor count: 10 of 10 (2×)
dose: 64.0 mg/kg/injection, schedule: Q## X024 (oral), vehicle: saline
  T/C: 128 % of control
dose: 69.0 mg/kg/injection, schedule: Q04DX002 (ip), vehicle: saline
  T/C: 129 % of control
dose: 75.0 mg/kg/injection, schedule: Q01DX001 (ip), vehicle: saline, evaluated on day 5
  T/C: 164 and 173 % of control
dose: 75.0 mg/kg/injection, schedule: Q01DX001 (ip), vehicle: saline, evaluated on day 60
  T/C: 164 and 173 % of control
dose: 96.0 mg/kg/injection, schedule: Q## X008 (ip), vehicle: saline
  survivor count: 0 of 10
dose: 96.0 mg/kg/injection, schedule: Q## X024 (ip), vehicle: saline
  survivor count: 0 of 10
dose: 100.0 mg/kg/injection, schedule: Q01DX001 (ip), vehicle: saline, evaluated on day 5
  T/C: 139 and 164 % of control
dose: 100.0 mg/kg/injection, schedule: Q01DX001 (ip), vehicle: saline, evaluated on day 60
  T/C: 139 and 164 % of control [7 of 10 alive]
dose: 100.0 mg/kg/injection, schedule: Q01DX001 (ip), vehicle: saline, run until all animals had died
  T/C: 158 and 164 % of control [5 of 6 alive]
dose: 100.0 mg/kg/injection, schedule: Q01DX005 (ip), vehicle: saline
  survivor count: 0 of 6
dose: 128.0 mg/kg/injection, schedule: Q01DX001 (oral), vehicle: saline
  T/C: 128 % of control
dose: 128.0 mg/kg/injection, schedule: Q## X024 (oral), vehicle: saline
  survivor count: 8 of 10
dose: 192.0 mg/kg/injection, schedule: Q01DX001 (ip), vehicle: saline
  survivor count: 3 of 10
dose: 200.0 mg/kg/injection, schedule: Q01DX001 (ip), vehicle: saline
  survivor count: 1 of 6
dose: 200.0 mg/kg/injection, schedule: Q01DX005 (ip), vehicle: saline
  survivor count: 0 of 6
dose: 256.0 mg/kg/injection, schedule: Q01DX001 (oral), vehicle: saline
  T/C: 137 and 143 % of control [9 of 10 alive]

— PubChem BioAssay AID248 (DTP/NCI, 2004)
